Data from article PMC9793359.
No constants are given. Whether binding was seen depends on the method and setting. Binding seen in cells or lysates may run through a third protein.

Key:
Experiment in all cases: co-IP
[1] = target: Flag-tagged nsp7 of SARS-CoV-2 (SARS-CoV-2) (UniProt P0DTD1)
[2] = target: Flag-tagged nsp12 of SARS-CoV-2 (SARS-CoV-2) (UniProt P0DTD1)
[3] = target: Flag-tagged nsp8 of SARS-CoV-2 (SARS-CoV-2) (UniProt P0DTD1)

Measured: binding

CDK5, endogenous (from UniProt Q00535 1-292) (enzyme)
no binding: all assays above
